Data published in the supplement of paper PMC9015667.
Structures can show the parent of a compound that is named as a salt. This is one part of the list. Single values are uncertain, as repeats are few or missing.

The compounds below were run on UACC62P (parental melanoma line) (assay: reduction in cell viability relative to untreated/vehicle; higher = more growth inhibition). Conditions: 200 nM; 72 h.

Structure (SMILES) | reduction in cell viability [%]
COc1cc(/C=C/C(=O)O)ccc1O [Fumalic acid] | < 0
CS(=O)(=O)OCCCCOS(C)(=O)=O [Busulfan] | < 0
NCCS(=O)(=O)O [l-Taurine] | < 0
CCN(CC)CCCCNc1nc2cc(Cl)c(Cl)cc2nc1-c1ccc(-c2cccs2)s1 | < 0
CCc1cccc(CC)c1NC(=O)N1Cc2[nH]nc(NC(=O)c3ccc(N4CCN(C)CC4)cc3)c2C1 | 26.2
N#CC1(c2ccc(NC(=O)c3cccnc3NCc3ccncc3)cc2)CCCC1 [Apatinib] | < 0
O=C(CCCN1CCC(O)(c2ccc(Cl)cc2)CC1)c1ccc(F)cc1 [Haloperidol] | 0.87
Cc1ccc(NC(=O)c2ccc(CN3CCN(C)CC3)cc2)cc1Nc1nc(-c2cccnc2)cs1 [Masitinib] | < 0
CCCN[C@H]1CCc2nc(N)sc2C1 [Pramipexole hydrochloride] | < 0
CCCCCCCCCCCCCCCCCCCCCCO [Docosanol] | < 0
C[C@@H]1CN(Cc2ccc(F)cc2)[C@@H](C)CN1C(=O)c1cc2c(C(=O)C(=O)N(C)C)cn(C)c2cc1Cl [Talmapimod] | < 0
CO[C@@H]1[C@H](N(C)C(=O)c2ccccc2)C[C@H]2O[C@]1(C)n1c3ccccc3c3c4c(c5c6ccccc6n2c5c31)C(=O)NC4=O [Stauprimide] | 1.89
O=C(C[C@@H]1C/C=C/CCC(=O)O[C@H](c2ccccc2)CNC1=O)NCc1ccc(Cl)cc1 [Robotnikinin] | 1.31
CC(C)(Oc1ccc(C2CC2(Cl)Cl)cc1)C(=O)O (stereo not given) [Ciprofibrate] | < 0
CC(NCCc1ccc(O)cc1)C(O)c1ccc(O)cc1 (stereo not given) [Ritodrine hydrochloride] | < 0
O=C1CSC(=O)N1C(CCc1ccncc1)COc1ccc(-c2cccc([N+](=O)[O-])c2)cc1 (stereo not given) | < 0
CN(C)Cc1c(C(=O)NCCOc2ccc(C(=O)NO)cc2)oc2ccccc12 [Abexinostat] | 50
CCCCN1CCC(CNC(=O)c2c3n(c4ccccc24)CCCO3)CC1 [Piboserod hydrochloride] | < 0
CN1C2CCCC1CC(NC(=O)c1nn(C)c3ccccc13)C2 (stereo not given) [Granisetron hydrochloride] | 4.37
O=C(c1ccc(F)cc1)C1CCN(CCn2c(=O)[nH]c3ccccc3c2=O)CC1 [Ketanserin] | 1.08

Structure (SMILES) | reduction in cell viability [%]
NCc1c[nH]c(=S)n1[C@H]1CCc2c(F)cc(F)cc2C1 [Nepicastat hydrochloride] | < 0
OCCC#Cc1nc(-c2ccc(F)cc2)c(-c2ccncc2)n1CCCc1ccccc1 | < 0
CC(C)n1nc(-c2ccc3oc(N)nc3c2)c2c(N)ncnc21 | 71.2
Nc1nnc(-c2cccc(Cl)c2Cl)c(N)n1 [Lamotrigine] | < 0
Cn1cc(-c2cnn3c(N)c(Br)c([C@@H]4CCCNC4)nc23)cn1 | 7.35
CC(C)(C)c1nc(-c2cccc(NS(=O)(=O)c3c(F)cccc3F)c2F)c(-c2ccnc(N)n2)s1 [Dabrafenib] | 62.8
CCOc1ccn(-c2ccc(F)cc2)c(=O)c1C(=O)Nc1ccc(Oc2ccnc(N)c2Cl)c(F)c1 | < 0
Cc1nc2cnc3ccc(C#Cc4cccnc4)cc3c2n1-c1ccc(C(C)(C)C#N)cc1 | 35.1
O=C(O)[C@@H](c1ccc(OCc2ccc3ccccc3n2)cc1)C1CCCC1 [Veliflapon] | 5.04
NC(=O)c1ncn([C@@H]2O[C@H](CO)[C@@H](O)[C@H]2O)c1O [Mizoribine] | < 0
COc1cc2nccc(Oc3ccc(NC(=O)Nc4ccc(F)cc4F)c(F)c3)c2cc1OC | 4.69
Cc1ccnc(NS(=O)(=O)c2ccc(NC(=O)Nc3ccc(S(=O)(=O)Nc4nccc(C)n4)cc3)cc2)n1 | < 0
Cc1c(OCC(F)(F)F)ccnc1C[S+]([O-])c1nc2ccccc2[nH]1 (stereo not given) [Lansoprazole] | < 0
C[C@H]1C[C@H]2[C@@H]3CCC4=CC(=O)C=C[C@]4(C)[C@H]3C(=O)C[C@]2(C)[C@@]1(O)C(=O)CO [Meprednisone] | < 0
COc1ccc(-c2oc3cc(OC)ccc3c2C(=O)c2ccc(C#N)cc2)cc1 | < 0
C[C@@H]1CCN(C(=O)CC#N)C[C@@H]1N(C)c1ncnc2[nH]ccc12 [Tofacitinib] | 4.72
c1coc(CNc2ncnc3[nH]cnc23)c1 [Kinetin] | < 0
Nc1ncnc2c1ncn2[C@@H]1O[C@H](CO)C[C@H]1O [Cordycepin] | < 0
CCN(CC)C(=S)SSC(=S)N(CC)CC [Disulfiram] | 81.3
COc1ccc2nc3cc(Cl)ccc3c(Nc3cc(CN4CCCC4)c(O)c(CN4CCCC4)c3)c2n1 [Pyronaridine] | 9.88

Reprinted at random: 2 records from the list
Structure (SMILES) | reduction in cell viability [%]
Cn1cc(-c2cnn3c(N)c(Br)c([C@@H]4CCCNC4)nc23)cn1 | 7.35
C[C@H]1C[C@H]2[C@@H]3CCC4=CC(=O)C=C[C@]4(C)[C@H]3C(=O)C[C@]2(C)[C@@]1(O)C(=O)CO [Meprednisone] | < 0
